# The other results are listed elsewhere or left out.
# By UniProt entry, the sequences of proteins in these tests, tags left out. Where a name states a change or a piece, a line headed by the entry shows the natural chain unless it says otherwise.
# UniProt P50990: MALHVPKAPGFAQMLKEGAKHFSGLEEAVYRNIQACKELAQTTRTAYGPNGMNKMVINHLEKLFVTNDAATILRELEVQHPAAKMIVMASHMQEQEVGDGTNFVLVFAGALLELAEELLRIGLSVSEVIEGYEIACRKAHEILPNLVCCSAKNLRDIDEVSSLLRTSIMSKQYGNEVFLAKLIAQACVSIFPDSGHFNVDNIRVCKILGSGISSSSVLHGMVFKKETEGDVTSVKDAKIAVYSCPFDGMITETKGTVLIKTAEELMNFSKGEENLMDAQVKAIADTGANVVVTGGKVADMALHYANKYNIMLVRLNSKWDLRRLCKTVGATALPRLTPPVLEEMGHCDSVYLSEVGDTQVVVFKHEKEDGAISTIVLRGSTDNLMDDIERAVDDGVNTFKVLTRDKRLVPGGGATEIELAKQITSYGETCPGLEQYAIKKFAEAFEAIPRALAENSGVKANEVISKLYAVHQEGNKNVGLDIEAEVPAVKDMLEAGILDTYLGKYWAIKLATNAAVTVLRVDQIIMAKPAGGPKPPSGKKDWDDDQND
# UniProt P49454: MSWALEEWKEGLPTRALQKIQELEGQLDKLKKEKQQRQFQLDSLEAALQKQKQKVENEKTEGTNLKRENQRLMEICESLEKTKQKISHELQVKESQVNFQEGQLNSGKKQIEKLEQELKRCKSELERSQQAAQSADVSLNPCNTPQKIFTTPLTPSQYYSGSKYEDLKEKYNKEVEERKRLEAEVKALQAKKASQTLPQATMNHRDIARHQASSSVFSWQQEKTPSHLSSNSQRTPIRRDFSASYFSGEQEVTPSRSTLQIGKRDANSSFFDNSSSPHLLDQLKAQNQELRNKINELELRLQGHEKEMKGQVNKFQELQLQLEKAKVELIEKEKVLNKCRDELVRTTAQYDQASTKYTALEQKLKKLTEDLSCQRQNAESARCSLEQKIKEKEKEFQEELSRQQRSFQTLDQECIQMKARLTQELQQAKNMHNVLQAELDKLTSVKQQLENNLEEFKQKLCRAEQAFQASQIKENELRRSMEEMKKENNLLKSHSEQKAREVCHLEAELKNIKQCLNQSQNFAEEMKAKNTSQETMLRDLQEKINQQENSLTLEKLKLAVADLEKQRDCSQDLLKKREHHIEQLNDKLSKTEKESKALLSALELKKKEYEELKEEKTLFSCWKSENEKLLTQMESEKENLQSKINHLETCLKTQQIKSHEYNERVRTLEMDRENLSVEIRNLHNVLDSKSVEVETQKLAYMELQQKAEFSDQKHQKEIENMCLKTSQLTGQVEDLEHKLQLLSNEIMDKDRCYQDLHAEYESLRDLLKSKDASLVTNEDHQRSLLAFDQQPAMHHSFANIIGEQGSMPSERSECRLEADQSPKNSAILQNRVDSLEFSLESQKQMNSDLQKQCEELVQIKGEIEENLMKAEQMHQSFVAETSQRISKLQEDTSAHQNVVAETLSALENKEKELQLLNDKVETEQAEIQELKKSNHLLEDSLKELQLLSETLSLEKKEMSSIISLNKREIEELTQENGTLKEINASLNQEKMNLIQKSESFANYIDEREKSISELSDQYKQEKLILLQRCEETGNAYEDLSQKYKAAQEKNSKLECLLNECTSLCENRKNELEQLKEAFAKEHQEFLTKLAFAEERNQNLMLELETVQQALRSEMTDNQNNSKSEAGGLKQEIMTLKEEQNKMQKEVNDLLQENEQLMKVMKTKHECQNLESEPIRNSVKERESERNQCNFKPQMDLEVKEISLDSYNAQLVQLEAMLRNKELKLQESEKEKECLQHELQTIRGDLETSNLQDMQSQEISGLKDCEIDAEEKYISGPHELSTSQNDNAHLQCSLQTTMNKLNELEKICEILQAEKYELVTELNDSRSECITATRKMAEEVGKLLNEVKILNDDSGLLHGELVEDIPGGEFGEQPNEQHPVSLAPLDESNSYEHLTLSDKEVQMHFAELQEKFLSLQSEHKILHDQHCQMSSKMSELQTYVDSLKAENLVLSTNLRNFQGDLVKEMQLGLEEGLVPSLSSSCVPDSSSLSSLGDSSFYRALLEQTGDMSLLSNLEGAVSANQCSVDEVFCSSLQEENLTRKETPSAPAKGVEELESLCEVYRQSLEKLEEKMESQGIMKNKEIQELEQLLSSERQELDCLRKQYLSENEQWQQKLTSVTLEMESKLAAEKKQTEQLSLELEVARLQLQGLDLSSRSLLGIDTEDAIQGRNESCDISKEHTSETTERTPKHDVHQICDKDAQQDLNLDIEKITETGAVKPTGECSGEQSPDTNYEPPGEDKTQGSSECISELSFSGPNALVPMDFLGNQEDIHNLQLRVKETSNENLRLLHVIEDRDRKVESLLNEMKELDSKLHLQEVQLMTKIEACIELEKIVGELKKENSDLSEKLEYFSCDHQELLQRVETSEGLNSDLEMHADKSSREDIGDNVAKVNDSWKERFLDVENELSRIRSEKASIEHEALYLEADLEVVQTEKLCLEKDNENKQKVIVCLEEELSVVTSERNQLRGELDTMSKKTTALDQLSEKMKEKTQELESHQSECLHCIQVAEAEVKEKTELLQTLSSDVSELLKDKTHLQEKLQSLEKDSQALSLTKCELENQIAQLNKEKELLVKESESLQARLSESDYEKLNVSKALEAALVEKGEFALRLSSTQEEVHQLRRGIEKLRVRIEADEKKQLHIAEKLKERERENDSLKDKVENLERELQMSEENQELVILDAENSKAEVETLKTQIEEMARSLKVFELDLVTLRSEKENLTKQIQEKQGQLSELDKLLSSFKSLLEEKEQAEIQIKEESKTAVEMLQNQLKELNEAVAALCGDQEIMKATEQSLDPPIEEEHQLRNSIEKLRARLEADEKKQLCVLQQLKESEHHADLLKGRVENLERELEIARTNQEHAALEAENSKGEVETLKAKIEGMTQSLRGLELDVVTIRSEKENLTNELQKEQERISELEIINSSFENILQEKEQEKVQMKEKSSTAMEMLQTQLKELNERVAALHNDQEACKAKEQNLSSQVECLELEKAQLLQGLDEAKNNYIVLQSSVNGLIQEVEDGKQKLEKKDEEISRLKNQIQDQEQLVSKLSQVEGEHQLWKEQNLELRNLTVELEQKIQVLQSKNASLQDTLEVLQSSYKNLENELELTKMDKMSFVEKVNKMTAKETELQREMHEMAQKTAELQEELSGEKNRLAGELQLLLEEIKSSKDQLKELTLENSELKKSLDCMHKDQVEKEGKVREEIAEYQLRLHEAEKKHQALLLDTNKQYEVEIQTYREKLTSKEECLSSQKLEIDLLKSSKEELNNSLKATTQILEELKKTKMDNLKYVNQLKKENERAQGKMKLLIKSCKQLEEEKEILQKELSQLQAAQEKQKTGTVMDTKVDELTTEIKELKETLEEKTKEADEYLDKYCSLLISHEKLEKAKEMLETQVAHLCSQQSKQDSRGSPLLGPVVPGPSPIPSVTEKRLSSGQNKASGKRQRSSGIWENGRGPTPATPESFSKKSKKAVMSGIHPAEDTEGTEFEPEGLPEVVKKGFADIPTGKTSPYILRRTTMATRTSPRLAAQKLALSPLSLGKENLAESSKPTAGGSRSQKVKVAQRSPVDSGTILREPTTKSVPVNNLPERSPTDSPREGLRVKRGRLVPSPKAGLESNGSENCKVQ
# UniProt O94986: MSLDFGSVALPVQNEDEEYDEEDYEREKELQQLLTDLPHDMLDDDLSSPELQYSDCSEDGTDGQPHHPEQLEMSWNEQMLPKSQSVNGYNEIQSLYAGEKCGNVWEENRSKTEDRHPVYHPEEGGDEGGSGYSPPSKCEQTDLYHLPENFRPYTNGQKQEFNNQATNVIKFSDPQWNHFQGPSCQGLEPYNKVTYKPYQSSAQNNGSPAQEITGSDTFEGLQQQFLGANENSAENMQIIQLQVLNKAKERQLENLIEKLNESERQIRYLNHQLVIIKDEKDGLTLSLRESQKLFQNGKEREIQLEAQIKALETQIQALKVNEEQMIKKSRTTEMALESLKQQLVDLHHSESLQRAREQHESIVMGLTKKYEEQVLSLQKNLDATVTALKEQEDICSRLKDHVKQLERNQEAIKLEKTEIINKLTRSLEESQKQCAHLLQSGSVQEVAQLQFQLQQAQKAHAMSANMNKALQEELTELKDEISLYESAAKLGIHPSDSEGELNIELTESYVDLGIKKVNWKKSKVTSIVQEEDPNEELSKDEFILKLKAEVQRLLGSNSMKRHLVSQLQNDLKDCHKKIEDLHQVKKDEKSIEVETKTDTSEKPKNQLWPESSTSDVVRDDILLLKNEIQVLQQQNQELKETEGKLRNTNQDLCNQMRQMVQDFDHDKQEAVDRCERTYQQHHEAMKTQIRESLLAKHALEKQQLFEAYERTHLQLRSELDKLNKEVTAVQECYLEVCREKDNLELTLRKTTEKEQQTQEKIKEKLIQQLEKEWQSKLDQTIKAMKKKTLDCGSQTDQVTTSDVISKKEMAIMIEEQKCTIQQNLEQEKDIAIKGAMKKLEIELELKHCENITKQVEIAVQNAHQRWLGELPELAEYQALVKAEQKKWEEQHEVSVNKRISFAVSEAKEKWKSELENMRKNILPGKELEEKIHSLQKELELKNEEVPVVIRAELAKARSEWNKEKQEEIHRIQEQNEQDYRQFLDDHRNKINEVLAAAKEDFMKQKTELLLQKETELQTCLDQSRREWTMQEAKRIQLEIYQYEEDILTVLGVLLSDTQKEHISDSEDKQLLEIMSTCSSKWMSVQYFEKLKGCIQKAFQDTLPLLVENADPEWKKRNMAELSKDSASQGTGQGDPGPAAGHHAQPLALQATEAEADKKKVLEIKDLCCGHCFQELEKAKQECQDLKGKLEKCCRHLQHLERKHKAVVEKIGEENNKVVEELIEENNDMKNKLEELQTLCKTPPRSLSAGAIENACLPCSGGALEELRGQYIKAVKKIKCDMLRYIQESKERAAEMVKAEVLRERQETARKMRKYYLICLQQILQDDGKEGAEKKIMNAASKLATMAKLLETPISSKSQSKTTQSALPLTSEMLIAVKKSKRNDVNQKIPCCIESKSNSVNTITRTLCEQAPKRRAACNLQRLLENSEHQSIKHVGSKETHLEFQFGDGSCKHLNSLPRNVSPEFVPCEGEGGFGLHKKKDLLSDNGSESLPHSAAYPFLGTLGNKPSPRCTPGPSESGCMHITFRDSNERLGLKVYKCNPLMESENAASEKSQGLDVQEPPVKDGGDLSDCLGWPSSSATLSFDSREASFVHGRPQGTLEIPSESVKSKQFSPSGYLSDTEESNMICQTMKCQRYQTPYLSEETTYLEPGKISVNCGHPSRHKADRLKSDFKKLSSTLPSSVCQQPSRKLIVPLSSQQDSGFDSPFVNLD
# UniProt P48643, whole entry, looked up: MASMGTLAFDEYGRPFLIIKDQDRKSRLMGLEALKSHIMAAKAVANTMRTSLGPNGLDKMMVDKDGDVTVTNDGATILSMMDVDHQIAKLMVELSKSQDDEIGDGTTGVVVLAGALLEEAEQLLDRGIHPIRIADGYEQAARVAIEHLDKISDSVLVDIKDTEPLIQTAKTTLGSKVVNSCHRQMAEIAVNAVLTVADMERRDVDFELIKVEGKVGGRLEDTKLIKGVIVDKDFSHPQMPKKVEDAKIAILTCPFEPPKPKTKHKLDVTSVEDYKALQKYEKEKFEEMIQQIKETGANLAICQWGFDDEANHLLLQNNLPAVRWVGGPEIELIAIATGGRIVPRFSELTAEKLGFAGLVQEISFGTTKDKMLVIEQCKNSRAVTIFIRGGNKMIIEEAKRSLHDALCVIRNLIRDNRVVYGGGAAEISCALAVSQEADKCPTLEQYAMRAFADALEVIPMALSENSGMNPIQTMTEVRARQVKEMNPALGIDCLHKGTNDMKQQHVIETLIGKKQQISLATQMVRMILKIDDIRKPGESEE
# UniProt O95319: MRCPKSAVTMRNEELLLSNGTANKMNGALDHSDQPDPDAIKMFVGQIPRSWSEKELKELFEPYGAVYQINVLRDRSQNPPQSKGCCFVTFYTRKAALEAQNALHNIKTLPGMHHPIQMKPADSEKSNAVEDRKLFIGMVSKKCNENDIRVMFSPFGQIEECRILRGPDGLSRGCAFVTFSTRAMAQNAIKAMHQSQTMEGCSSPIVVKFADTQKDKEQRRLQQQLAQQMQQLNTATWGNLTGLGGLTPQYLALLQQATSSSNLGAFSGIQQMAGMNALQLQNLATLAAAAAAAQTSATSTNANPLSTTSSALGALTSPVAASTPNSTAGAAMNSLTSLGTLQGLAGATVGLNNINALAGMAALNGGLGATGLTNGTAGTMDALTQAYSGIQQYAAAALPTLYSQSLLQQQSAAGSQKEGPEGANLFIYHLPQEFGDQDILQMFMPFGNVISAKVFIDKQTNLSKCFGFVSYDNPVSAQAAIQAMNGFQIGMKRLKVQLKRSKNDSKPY
# Compound: CC1Cc2ccccc2N1C(=O)C1CCCN(C1)C(=O)CCl (mixture of isomers) [TRIM25 ligand 11 (diastereomer mixture)]
# Assay: probe-labelled cysteine peptide fold change vs DMSO (competition) (log2 fold change); higher = less target engagement (more negative = stronger competition)
# Settings: THP-1, incubation time: 4 h
# 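Also: competitive chemoproteomic profiling in live THP-1 cells with an iodoacetamide desthiobiotin (IA-DTB) probe, comparing probe-labelled peptide intensities in compound-treated cells against DMSO-treated controls.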
Target,probe-labelled cysteine peptide fold change (10 µM),probe-labelled cysteine peptide fold change (50 µM)
CCT8_P50990_187_LIAQACVSIFPDSGHFNVDNIR (UniProt P50990),-0.0566,-0.0321
CD3EAP_O15446_150_FCAFGGNPPVTGPR (UniProt O15446),-0.187,-0.273
CENPF_P49454_373_LTEDLSCQR (UniProt P49454),-0.0525,-0.0826
CDYL_Q9Y232_515_LTAQEACGK (UniProt Q9Y232),0.0959,0.0586
CD46_P15529_162_VLCTPPPK (UniProt P15529),0.0462,-0.17
CDK5_Q00535_83_LTLVFEFCDQDLKK (UniProt Q00535),0.036,0.144
CCT8_P50990_136_IGLSVSEVIEGYEIACR (UniProt P50990),0.108,0.0308
CD58_P19256_161+166_GLIMYSWDCPMEQCK (UniProt P19256),-0.011,-0.0315
CDC73_Q6P1J9_145_IEDEECVR (UniProt Q6P1J9),0.0862,0.104
CCT7_Q99832_310_DMFCAGR (UniProt Q99832),0.179,0.0711
CERS5_Q8N5B7_369_SPCDSSSSNGANR (UniProt Q8N5B7),-0.0225,-0.232
CEP152_O94986_1167_DLCCGHCFQELEK (UniProt O94986),-0.0593,0.0339
CCT5_P48643_377_MLVIEQCK (UniProt P48643),-0.0243,-0.101
CELF2_O95319_161_VMFSPFGQIEECR (UniProt O95319),-0.0884,-0.00434
CENPF_P49454_2776_SLDCMHK (UniProt P49454),-0.135,0.0416

# Some of the entries so far, with bars between the fields.
Target | probe-labelled cysteine peptide fold change (10 µM) | probe-labelled cysteine peptide fold change (50 µM)
CCT5_P48643_377_MLVIEQCK (UniProt P48643) | -0.0243 | -0.101
CELF2_O95319_161_VMFSPFGQIEECR (UniProt O95319) | -0.0884 | -0.00434

# Source: the supplement of paper PMC12067093, “Discovery and optimisation of a covalent ligand for TRIM25 and its application to targeted protein ubiquitination” (Chemical Science, 2025)
